Data published in patent US10273202B2, “Nitroxyl progenitor compounds and methods of use” (The Johns Hopkins University, priority 2004, dated 2019).

Tested on: methemoglobin
Assay: Spectrophotometric detection of HNO by trapping with methemoglobin

Which results are given for [Na+].[Na+].[O-][N+]([O-])=NO [AS, Angeli's salt]?
iron-nitrosyl (Fe(II)NO) absorption band between 530 and 600 nm (deaerated methemoglobin 50 μM, 100 μM donor): distinct absorption band due to the iron-nitrosyl (Fe(II)NO) complex is observed; iron-nitrosyl absorption band in the presence of glutathione (methemoglobin 50 μM, 1 mM glutathione): completely quenched
